Test results published in US10155027B2, “Alpha-galactosidase A and 1-deoxygalactonojirimycin co-formulation for the treatment of fabry disease” (Amicus Therapeutics, Inc., priority 2012, dated 2018).
Some results were stated once for a whole list of compounds, not compound by compound.

Legend:
[1] = system: C52S fibroblast cells derived from Fabry patients; assay: α-Gal A uptake and GL-3 reduction in C52S Fabry patient fibroblasts; format: cell-based, human; conditions: enzyme 0.5 nM alone
[2] = system: R301Q fibroblast cells derived from Fabry patients; assay: α-Gal A uptake and GL-3 reduction in R301Q Fabry patient fibroblasts; format: cell-based, human; conditions: enzyme 0.5 nM alone
Procedure: The effect of co-formulating α-Gal A with DGJ on α-Gal A uptake and GL-3 reduction in R301Q and C52S fibroblast cells derived from Fabry patients was determined. 0.5 nM α-Gal A was tested alone or co-formulated with 0.1, 1.0, 10 or 100 μM DGJ. […] The graph bars represent the average of compiled data from 4 separate experiments.
Further reduction after co-incubation with DGJ is also similar between the two enzymes (˜40-50% of baseline). The graph bars represent the average of compiled data from 4 separate experiments.

## Fabrazyme: Agalsidase beta, produced by recombinant DNA technology in a Chinese hamster ovary (CHO) cell line; Genzyme Corporation
[1]
  GL-3 levels: 70-80 % of baseline
[2]
  GL-3 levels: 70-80 % of baseline

## JR-051: recombinant human α-Gal A produced in CHO cells transformed with an expression vector encoding the human α-Gal A gene (JCR Pharmaceuticals)
[1]
  GL-3 levels: 70-80 % of baseline
[2]
  GL-3 levels: 70-80 % of baseline
